Experimental data reported in patent US20210332139A1, “MODULATION OF LEUKOCYTE ACTIVITY IN TREATMENT OF NEUROINFLAMMATORY DEGENERATIVE DISEASE” (Leuvas Therapeutics, priority 2013, published 2021).
At least one compound was matched to its structure with a doubt left.

Tested on: human primary PMNs
Assay: Static adhesion of human primary PMNs to ICAM-1 with signaling inhibitors
Assay type: cell-based
Details: result in words
Description: As a model system, human primary PMNs were isolated form healthy donors stimulated to very rapid adhesion to purified human ICAM-1, ligand for the β2 integrins LFA-1 and Maci. fMLP (the classical chemoattractant) was the positive control. […] PMNs were treated for 30 min. with different concentrations of inhibitors followed by stimulation for 1 min with 50 nM fMLP or with 10 μM Aβ. The number of adherent cells was quantified by computer-assisted evaluation. Statistical analysis was SD.

Row | Structure (SMILES) | Blockade of Aβ-induced adhesion of human neutrophils
1 | COc1cc(Nc2c(C#N)cnc3cc(OCCCN4CCN(C)CC4)c(OC)cc23)c(Cl)cc1Cl [Bosutinib, bosutinib] | can block
2 | Cc1nc(Nc2ncc(C(=O)Nc3c(C)cccc3Cl)s2)cc(N2CCN(CCO)CC2)n1 [Dasatinib, dasatinib] | can block
3 | C=CC(=O)N1CCC[C@@H](n2nc(-c3ccc(Oc4ccccc4)cc3)c3c(N)ncnc32)C1 [Ibrutinib, ibrutinib] | potent inhibitor
4 | N#CC[C@H](C1CCCC1)n1cc(-c2ncnc3[nH]ccc23)cn1 [Ruxolitinib, ruxolitinib] | can block
